Data as given in patent EP4679096A1, “BIOMARKERS AND METHOD FOR ESTIMATING BRAIN NEURODEGENERATIVE CONDITION” (SHIMADZU CORPORATION, priority 2023, dated 2024).

Experiment: Ng peptides in plasma by affinity purification (anti-Ng antibody beads) and MALDI-TOF MS; comparison of CN, MCI, AD_Aβ+ and nonAD_Aβ- groups
Set-up: species or system human
Description: At the National Center for Geriatrics and Gerontology, 161 plasma samples and clinical diagnostic information such as amyloid PET findings, FDG-PET findings, MRI findings and MMSE findings (Mini Mental State Examination) were acquired.
The subject is a case diagnosed with normal cognitive function (CN), mild cognitive impairment (MCI), Alzheimer's disease (AD), and dementia other than Alzheimer's disease (nonAD). A group of AD and nonAD was defined as a group of dementia.
PiB-PET images of the brains of the subjects were acquired in order to determine whether AB accumulation in the brain was positive or negative. A subject in which the accumulation amount of PiB in the cerebral cortex was larger than or equal to the accumulation amount of PiB in the non-specific white matter by visual interpretation evaluation by a nuclear medicine specialist was determined to be positive. A subject who had only non-specific accumulation in the white matter and hardly accumulated in the cortex was determined to be negative. The PiB accumulation average value (SUVR: Standard Uptake Value Ratio) quantified the PiB accumulation in the cortex, and the accumulation ratio of the cerebrum was determined on the basis of the cerebellum. […]

For “Ng7-55: neurogranin fragment peptide, No. 26 (NACSKPDDDILDIPLDDPGANAAAAKIQASFRGHMARKKIKSGERGRKG; UniProt Q92686 7-55, looked up, fragment)”, the “Median for each group nonAD” value (plasma NI, corrected as in Experimental Example 1, nonAD_Aβ- group per text) was 0.140 and the “Difference in median for each group CN vs AD_Aβ +” value (ratio of medians (times CN), Experimental Example 1 correction) was 1.11.
